PubChem BioAssay AID1224828 – NIAID | 2016
Here is one part, drawn at random, of about 17,000 reagents tested. 762 of all reagents (4.5%) were called active. 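Active calls include both raised and lowered p65 entry, mostly lowered; wells with fewer than 50 cells lack a z-score.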 Raw values are not corrected between plates. A reagent listed more than once was tested more than once; the source does not tell the runs apart. No sequences are given here.

Assay: 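Regulators linking TLR4 signalling to p65 nuclear translocation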 (primary screen)
System: mouse RAW264.7 G9 macrophage reporter cells (GFP-p65, Tnf promoter-mCherry)
Knock-down reagent: siRNA pool against mouse genes, 100 nM
Duration: 2 days siRNA transfection, then 40 min LPS before fixation
Treatment: LPS (Salmonella minnesota R595) at 10 ng/ml
Read-out: 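Imaged p65 nuclear translocation ratio, normalised to the plate median, converted to robust z-scores and averaged across two replicates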
Reading the numbers: p65 translocation robust z-score: higher = more nuclear NF-kappaB p65 after LPS than the plate median; nuclear/cytoplasmic p65 ratio: higher = more nuclear NF-kappaB p65
Hit rule: 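Active if robust z is above 3.3 (negative regulators) or below -1.56, the Tlr4 control median (positive regulators); activity score 50 or more; control wells not called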
Calls: active = hit (p65 shift raised or lowered); inactive = no clear change

gene knocked down | p65 translocation robust z-score | nuclear/cytoplasmic p65 ratio, rep 1 | nuclear/cytoplasmic p65 ratio, rep 2 | low cell count flag | Call
Zic2 | 1.13 | 1.83 | 1.63 | enough cells to score | inactive
Ash2l | -0.12 | 1.47 | 1.61 | enough cells to score | inactive
Dusp5 | 1.03 | 1.84 | 1.52 | enough cells to score | inactive
Htr5a | -0.45 | 1.39 | 1.57 | enough cells to score | inactive
Exoc3l4 | -0.66 | 1.39 | 1.25 | enough cells to score | inactive
Epsti1 | – | 1.52 | 1.59 | fewer than 50 cells per well; well left out of scoring | inactive
Phf21a | – | 1.26 | 1.23 | fewer than 50 cells per well; well left out of scoring | inactive
Arhgap28 | 1.76 | 1.68 | 1.6 | enough cells to score | inactive
Cgb (retired record) | 0.48 | 1.63 | 1.9 | enough cells to score | inactive
Thbs3 | 1.39 | 1.61 | 1.82 | enough cells to score | inactive
Plcb1 | 0.18 | 1.43 | 1.24 | enough cells to score | inactive
Shmt2 | -1.34 | 1.33 | 1.39 | enough cells to score | inactive
Gmnn | -0.61 | 1.32 | 1.33 | enough cells to score | inactive
Kctd12b | 1.48 | 1.35 | 1.63 | enough cells to score | inactive
Usp18 | 0.29 | 1.5 | 1.59 | enough cells to score | inactive
Srst | 2.06 | 1.65 | 1.5 | enough cells to score | inactive
Ptprcap | 0.19 | 1.47 | 1.48 | enough cells to score | inactive
Pias3 | -0.41 | 1.42 | 1.38 | enough cells to score | inactive
Ago4 | 0.17 | 1.5 | 1.37 | enough cells to score | inactive

Records listed so far whose gene name starts with A or a:
gene knocked down | p65 translocation robust z-score | nuclear/cytoplasmic p65 ratio, rep 1 | nuclear/cytoplasmic p65 ratio, rep 2 | low cell count flag | Call
Ash2l | -0.12 | 1.47 | 1.61 | enough cells to score | inactive
Arhgap28 | 1.76 | 1.68 | 1.6 | enough cells to score | inactive
Ago4 | 0.17 | 1.5 | 1.37 | enough cells to score | inactive

Additional reagents:
gene knocked down | p65 translocation robust z-score | nuclear/cytoplasmic p65 ratio, rep 1 | nuclear/cytoplasmic p65 ratio, rep 2 | low cell count flag | Call
Zdhhc1 | -0.13 | 1.31 | 1.3 | enough cells to score | inactive
Mettl22 | -0.12 | 1.65 | 1.72 | enough cells to score | inactive
Pcnx1 | 1.53 | 1.66 | 1.41 | enough cells to score | inactive
Proser3 | 0.47 | 1.78 | 1.63 | enough cells to score | inactive
Foxe1 | -0.98 | 1.3 | 1.25 | enough cells to score | inactive
Rdh9 | -1.49 | 1.22 | 1.08 | enough cells to score | inactive
Or4c103 | 1.2 | 1.89 | 1.71 | enough cells to score | inactive
Sertad3 | -0.86 | 1.21 | 1.23 | enough cells to score | inactive
Emsy | 0.2 | 1.38 | 1.33 | enough cells to score | inactive
Abcb6 | 1.29 | 1.69 | 2 | enough cells to score | inactive
Lamtor1 | – | 1.2 | 1.19 | fewer than 50 cells per well; well left out of scoring | inactive
Rps25 | -0.12 | 1.4 | 1.21 | enough cells to score | inactive
Tnnc2 | -0.68 | 1.49 | 1.36 | enough cells to score | inactive
Dhrs4 | 2.01 | 1.84 | 1.86 | enough cells to score | inactive
Sdcbp2 | 1.26 | 1.62 | 1.34 | enough cells to score | inactive
Mettl13 | -1.24 | 1.22 | 1.28 | enough cells to score | inactive
Pax2 | -0.23 | 1.4 | 1.4 | enough cells to score | inactive
Ankrd23 | 0.33 | 1.63 | 1.76 | enough cells to score | inactive
Six4 | -1 | 1.36 | 1.46 | enough cells to score | inactive
Or10p22 | 0.66 | 1.46 | 1.35 | enough cells to score | inactive
Ahsa1 | 1.79 | 1.8 | 1.97 | enough cells to score | inactive
Magi3 | 1.29 | 1.47 | 1.55 | enough cells to score | inactive
Magi3 | – | 1.57 | 1.41 | fewer than 50 cells per well; well left out of scoring | inactive
Elavl3 | -0.15 | 1.54 | 1.26 | enough cells to score | inactive
Rabep1 | 1.36 | 1.56 | 1.36 | enough cells to score | inactive
Nup210 | -0.53 | 1.64 | 1.21 | enough cells to score | inactive
Suox | 0.11 | 1.5 | 1.64 | enough cells to score | inactive
Tcf19 | -0.66 | 1.46 | 1.4 | enough cells to score | inactive
Cd5l | -2.03 | 1.39 | 1.12 | enough cells to score | active
Abca8b | -0.41 | 1.55 | 1.62 | enough cells to score | inactive
Hpd | 0.3 | 1.45 | 1.44 | enough cells to score | inactive
Rasal3 | 0.41 | 1.36 | 1.67 | enough cells to score | inactive
Nr3c1 | -0.49 | 1.52 | 1.22 | enough cells to score | inactive
Tcp1 | 0.1 | 1.52 | 1.55 | enough cells to score | inactive
Pramel13 | -0.45 | 1.5 | 1.59 | enough cells to score | inactive
Actr1a | -0.46 | 1.58 | 1.52 | enough cells to score | inactive
Aebp2 | -1.02 | 1.18 | 1.55 | enough cells to score | inactive
Erich2 | – | 1.25 | 1.35 | fewer than 50 cells per well; well left out of scoring | inactive
Cep89 | -0.86 | 1.27 | 1.36 | enough cells to score | inactive
Adamts19 | 0.63 | 1.77 | 1.66 | enough cells to score | inactive
